Experimental findings from patent publication US10072233B2, “Fragrance and flavor compositions comprising neopentyl glycol diacetate” (P2 SCIENCE, INC., priority 2015, dated 2018) are described below.

The nature of this series: Olfactory analysis on a fragrance blotter. An excerpt: The aroma of neopentyl glycol diacetate may be evaluated by testing the compound on a fragrance blotter, a small strip of paper used to sample the compound in aqueous form. Rather than smell a fragrance ingredient directly from the vial in which it is contained, fragrance blotters are used to provide a more accurate representation of the smell of a given fragrance ingredient. The aroma at the surface of a vial containing a fragrance ingredient is mostly comprised of the aroma's top notes, which are strong, but evaporate quickly. Use of a fragrance blotter therefore provides a better indication of the overall scent of neopentyl glycol diacetate, including its middle, and base notes, which makes up the majority of the odor experienced from an ingredient once it has been imparted in a product.
Aqueous neopentyl glycol diacetate prepared by the method of Example 1 was sampled on a fragrance blotter to assess the compound's aroma.
Neopentyl glycol diacetate was first presented on a blotter neat.
A 10% dilution in triethylcitrate of neopentyl glycol diacetate synthesized by the method of Example 1 was then prepared and sampled on a blotter. […] The tenacity on the blotter was on the order of 5-10 hrs.

As for `CC(=O)OCC(C)(C)COC(C)=O` [neopentyl glycol diacetate], the “aroma on fragrance blotter” value was “pleasing aromatic effect” (10% dilution in triethylcitrate); “fresh, sweet, fruity, resinous, and myrrh-like, with notes of fattiness” (presented neat on a blotter); “sweet and described as fresh, fruity, resinous, and myrrh-like, with notes of fattiness” (presented neat on a blotter, listed as Neopentyl glycol diacetate). Moreover, the “tenacity on the blotter” value (10% dilution in triethylcitrate, the aroma's ability to be detected over a given time period) was 5 to 10 h.
